Where “and” joins values, the source holds several entries; their conditions need not be identical. Identical values can stand only once.
Test: Competitive binding of FITC-Avidin and unlabeled Avidin in cartilage (binding isotherm fit)
Set-up: species or system bovine
Details: best fit of binding isotherm to FIG. 13 data
Protocol: To test this hypothesis, competitive binding experiments were performed in which 3 mm diameter cartilage disks were equilibrated for 3 days in 300 μl buffer containing a fixed amount of (fluorescently labeled) FITC-Avidin (1 μM) and graded amounts of unlabeled Avidin (0, 10, 76, 100, and 203 μM). The disks were split into half disks to reduce the time needed for equilibration, which was performed in 96 well plates at 37° C. The uptake ratio, RU, was measured and plotted versus the total bath concentration of Avidin (labeled+unlabeled, FIG. 13), where RU is defined as the total concentration of Avidin inside the cartilage (bound (CB) plus free (CF)) per intra-tissue water weight, normalized to the Avidin concentration in the equilibration bath (CBath):
Labeled and unlabeled Avidin were held to partition into the cartilage identically. At very low concentration of the labeled Avidin (≦1 μM), a high uptake of ˜120 was observed. When unlabeled Avidin was added to the bath, both species (labeled and unlabeled) could compete for the same (constant) number of binding sites available in the tissue (site density NT). […] To model the data of FIG. 13, a first-order, bimolecular, reversible reaction was produced to describe binding of Avidin to a single dominant binding species within cartilage. […]
[formula] […] Thus, K is determined by both steric hindrance and electrostatic (Donnan) interactions. […]

Avidin: positively charged globular glycosylated tetrameric protein, pI 10.5, 66 kDa, diameter ~7 nm (Invitrogen); SEQ ID NO 1
intra-tissue binding site density NT: 2920 µM and ~3000 µM and ~2920 µM
